System: HCT116
Conditions: 72 h
Outline: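 HCT116 cells were plated at 250 per well in 1536-well plates and allowed 5 h to attach. CellTiter-Glo luminescence was normalized to vehicle as 0% and positive control as -100%, followed by pattern correction. Four-parameter Hill fits provided IC50 and maximal efficacy.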

In the case of `CC(C)(C)c1ccc(O)cc1` [4-tert-Butylphenol], the IC50 cell viability (ICRF193 0 nM) is reported as > 45.8 µM and the IC50 cell viability (ICRF193 200 nM) is reported as > 45.8 µM.

Source: the supplement of paper PMC12137928
